The supplement of paper PMC8728848
The list shows a part of the results.

Tests used:
Test in all cases: glycan array binding signal (z-score within array); higher = stronger binding
Details in all cases: glycan notation: IUPAC condensed, linker removed
[1] = target: Gal(b1-4)GlcNAc(b1-6)Gal(b1-4)GlcNAc
Method in brief: (§1)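 From the Consortium for Functional Glycomics database, 3228 arrays were curated, keeping only those whose protein sequence was available. Binding is given as a within-array Z-score averaged across arrays sharing a protein sequence and across linkers. Negative Z-scores can be read as non-binding.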

[2] = target: Gal(b1-4)GlcNAc(b1-6)GalNAc
Method in brief: as §1

[3] = target: Gal(b1-4)GlcNAc(b1-6)[Gal(b1-3)]GalNAc
Method in brief: as §1

[4] = target: Gal(b1-4)GlcNAc(b1-6)[Gal(b1-4)GlcNAc(b1-3)]GalNAc
Method in brief: as §1

[5] = target: Gal(b1-4)GlcNAc6P
Method in brief: as §1

[6] = target: Gal(b1-6)Gal
Method in brief: as §1

[7] = target: Gal3S(b1-3)GalNAc
Method in brief: as §1

[8] = target: Gal3S(b1-3)GlcNAc
Method in brief: as §1

[9] = target: Gal3S(b1-3)[Fuc(a1-4)]GlcNAc
Method in brief: as §1

[10] = target: Gal3S(b1-4)Glc
Method in brief: as §1

[11] = target: Gal3S(b1-4)Glc6S
Method in brief: as §1

[12] = target: Gal3S(b1-4)GlcNAc
Method in brief: as §1

[13] = target: Gal3S(b1-4)[Fuc(a1-3)]Glc6S
Method in brief: as §1

[14] = target: Gal3S(b1-4)[Fuc(a1-3)]GlcNAc
Method in brief: as §1

[15] = target: Gal3S(b1-4)[Fuc(a1-3)]GlcNAc6S
Method in brief: as §1

[16] = target: Gal3S4S(b1-4)GlcNAc
Method in brief: as §1

[17] = target: Gal3S6S(b1-4)GlcNAc
Method in brief: as §1

[18] = target: Gal3S6S(b1-4)GlcNAc6S
Method in brief: as §1

[19] = target: Gal4S(b1-4)GlcNAc
Method in brief: as §1

[20] = target: Gal4S6S(b1-4)GlcNAc
Method in brief: as §1

[21] = target: Gal6P(b1-4)GlcNAc
Method in brief: as §1

[22] = target: Gal6S(b1-3)GlcNAc
Method in brief: as §1

[23] = target: Gal6S(b1-3)GlcNAc6S
Method in brief: as §1

[24] = target: Gal6S(b1-4)Glc
Method in brief: as §1

[25] = target: Gal6S(b1-4)Glc6S
Method in brief: as §1

[26] = target: Gal6S(b1-4)GlcNAc
Method in brief: as §1

[27] = target: Gal6S(b1-4)GlcNAc6S
Method in brief: as §1

[28] = target: GalNAc(a1-3)Gal
Method in brief: as §1

[29] = target: GalNAc(a1-3)GalNAc
Method in brief: as §1

[30] = target: GalNAc(a1-3)GalNAc(b1-3)Gal(a1-4)Gal(b1-4)Glc
Method in brief: as §1

[31] = target: GalNAc(a1-3)GalNAc(b1-3)Gal(a1-4)Gal(b1-4)GlcNAc
Method in brief: as §1

[32] = target: GalNAc(b1-3)Gal
Method in brief: as §1

[33] = target: GalNAc(b1-3)Gal(a1-4)Gal(b1-4)GlcNAc
Method in brief: as §1

[34] = target: GalNAc(b1-3)Gal(a1-4)Gal(b1-4)GlcNAc(b1-3)Gal(b1-4)Glc
Method in brief: as §1

[35] = target: GalNAc(b1-3)Gal(a1-6)Gal(b1-4)Glc
Method in brief: as §1

[36] = target: GalNAc(b1-3)GalNAc
Method in brief: as §1

[37] = target: GalNAc(b1-3)GlcNAc
Method in brief: as §1

[38] = target: GalNAc(b1-4)Gal(b1-4)Glc
Method in brief: as §1

B1: Epa20 (Candida glabrata) (protein)
chain: MGSSHHHHHHSSGLVPRGSHMASSNIPNNYPLGCSNKYSGHLPGLKMELYSYNYVNPRHPDPQNPGKLDQLYDPNLLGTYECFDSSYKDINYPRVGYKSKTLIGRSDGVSGILNFNFVPPWGCMPQKGQLPPAYNFKSNITLSNFTMILFGYFKPKISGNHIFSLHGDDLIYLNFGAGNAFDCCRQESSADNFGNYQAFSLWGINWEKKTLTVYLDMNTYYPIRIFYNNRDYQAIFNFSFKTEFDSSPVIDFQDYFFFLRDIDGGCPGEV
- glycan array binding signal (z-score) [1]: -0.015
- glycan array binding signal (z-score) [2]: 0.756
- glycan array binding signal (z-score) [3]: 0.361
- glycan array binding signal (z-score) [4]: 0.204
- glycan array binding signal (z-score) [5]: 0.35
- glycan array binding signal (z-score) [6]: -0.36
- glycan array binding signal (z-score) [7]: -0.457
- glycan array binding signal (z-score) [8]: -0.241
- glycan array binding signal (z-score) [9]: 0.569
- glycan array binding signal (z-score) [10]: -0.287
- glycan array binding signal (z-score) [11]: -0.099
- glycan array binding signal (z-score) [12]: -0.516
- glycan array binding signal (z-score) [13]: 2.1
- glycan array binding signal (z-score) [14]: 0.129
- glycan array binding signal (z-score) [15]: 1.41
- glycan array binding signal (z-score) [16]: 0.386
- glycan array binding signal (z-score) [17]: 0.252
- glycan array binding signal (z-score) [18]: 1.8
- glycan array binding signal (z-score) [19]: -0.937
- glycan array binding signal (z-score) [20]: -0.653
- glycan array binding signal (z-score) [21]: -0.55
- glycan array binding signal (z-score) [22]: 0.001
- glycan array binding signal (z-score) [23]: -0.011
- glycan array binding signal (z-score) [24]: -0.438
- glycan array binding signal (z-score) [25]: 1.88
- glycan array binding signal (z-score) [26]: -0.346
- glycan array binding signal (z-score) [27]: 0.939
- glycan array binding signal (z-score) [28]: -0.316
- glycan array binding signal (z-score) [29]: -0.604
- glycan array binding signal (z-score) [30]: -0.463
- glycan array binding signal (z-score) [31]: 0.111
- glycan array binding signal (z-score) [32]: 0.029
- glycan array binding signal (z-score) [33]: -0.071
- glycan array binding signal (z-score) [34]: 0.562
- glycan array binding signal (z-score) [35]: -0.854
- glycan array binding signal (z-score) [36]: -0.495
- glycan array binding signal (z-score) [37]: -0.345
- glycan array binding signal (z-score) [38]: 0.506
